Reference: publication PMC8298264, “Function of cofactor Akirin2 in the regulation of gene expression in model human neutrophil-like HL60 cells” (Bioscience Reports, 2021)

B1: sp¦Q9Y3L3¦3BP1_HUMAN (protein, UniProt Q9Y3L3 1-701, looked up)
SH3 domain-binding protein 1: MMKRQLHRMRQLAQTGSLGRTPETAEFLGEDLLQVEQRLEPAKRAAHNIHKRLQACLQGQSGADMDKRVKKLPLMALSTTMAESFKELDPDSSMGKALEMSCAIQNQLARILAEFEMTLERDVLQPLSRLSEEELPAILKHKKSLQKLVSDWNTLKSRLSQATKNSGSSQGLGGSPGSHSHTTMANKVETLKEEEEELKRKVEQCRDEYLADLYHFVTKEDSYANYFIRLLEIQADYHRRSLSSLDTALAELRENHGQADHSPSMTATHFPRVYGVSLATHLQELGREIALPIEACVMMLLSEGMKEEGLFRLAAGASVLKRLKQTMASDPHSLEEFCSDPHAVAGALKSYLRELPEPLMTFDLYDDWMRAASLKEPGARLQALQEVCSRLPPENLSNLRYLMKFLARLAEEQEVNKMTPSNIAIVLGPNLLWPPEKEGDQAQLDAASVSSIQVVGVVEALIQSADTLFPGDINFNVSGLFSAVTLQDTVSDRLASEELPSTAVPTPATTPAPAPAPAPAPAPALASAATKERTESEVPPRPASPKVTRSPPETAAPVEDMARRTKRPAPARPTMPPPQVSGSRSSPPAPPLPPGSGSPGTPQALPRRLVGSSLRAPTVPPPLPPTPPQPARRQSRRSPASPSPASPGPASPSPVSLSNPAQVDLGAATAEGGAPEAISGVPTPPAIPPQPRPRSLASETN
B2: sp¦Q9NSD9¦SYFB_HUMAN (protein, UniProt Q9NSD9 1-589, looked up)
Phenylalanine--tRNA ligase …: MPTVSVKRDLLFQALGRTYTDEEFDELCFEFGLELDEITSEKEIISKEQGNVKAAGASDVVLYKIDVPANRYDLLCLEGLVRGLQVFKERIKAPVYKRVMPDGKIQKLIITEETAKIRPFAVAAVLRNIKFTKDRYDSFIELQEKLHQNICRKRALVAIGTHDLDTLSGPFTYTAKRPSDIKFKPLNKTKEYTACELMNIYKTDNHLKHYLHIIENKPLYPVIYDSNGVVLSMPPIINGDHSRITVNTRNIFIECTGTDFTKAKIVLDIIVTMFSEYCENQFTVEAAEVVFPNGKSHTFPELAYRKEMVRADLINKKVGIRETPENLAKLLTRMYLKSEVIGDGNQIEIEIPPTRADIIHACDIVEDAAIAYGYNNIQMTLPKTYTIANQFPLNKLTELLRHDMAAAGFTEALTFALCSQEDIADKLGVDISATKAVHISNPKTAEFQVARTTLLPGLLKTIAANRKMPLPLKLFEISDIVIKDSNTDVGAKNYRHLCAVYYNKNPGFEIIHGLLDRIMQLLDVPPGEDKGGYVIKASEGPAFFPGRCAEIFARGQSVGKLGVLHPDVITKFELTMPCSSLEINVGPFL
B3: sp¦Q86VP6¦CAND1_HUMAN (protein, UniProt Q86VP6 2-1230, looked up)
Cullin-associated …: ASASYHISNLLEKMTSSDKDFRFMATNDLMTELQKDSIKLDDDSERKVVKMILKLLEDKNGEVQNLAVKCLGPLVSKVKEYQVETIVDTLCTNMLSDKEQLRDISSIGLKTVIGELPPASSGSALAANVCKKITGRLTSAIAKQEDVSVQLEALDIMADMLSRQGGLLVNFHPSILTCLLPQLTSPRLAVRKRTIIALGHLVMSCGNIVFVDLIEHLLSELSKNDSMSTTRTYIQCIAAISRQAGHRIGEYLEKIIPLVVKFCNVDDDELREYCIQAFESFVRRCPKEVYPHVSTIINICLKYLTYDPNYNYDDEDEDENAMDADGGDDDDQGSDDEYSDDDDMSWKVRRAAAKCLDAVVSTRHEMLPEFYKTVSPALISRFKEREENVKADVFHAYLSLLKQTRPVQSWLCDPDAMEQGETPLTMLQSQVPNIVKALHKQMKEKSVKTRQCCFNMLTELVNVLPGALTQHIPVLVPGIIFSLNDKSSSSNLKIDALSCLYVILCNHSPQVFHPHVQALVPPVVACVGDPFYKITSEALLVTQQLVKVIRPLDQPSSFDATPYIKDLFTCTIKRLKAADIDQEVKERAISCMGQIICNLGDNLGSDLPNTLQIFLERLKNEITRLTTVKALTLIAGSPLKIDLRPVLGEGVPILASFLRKNQRALKLGTLSALDILIKNYSDSLTAAMIDAVLDELPPLISESDMHVSQMAISFLTTLAKVYPSSLSKISGSILNELIGLVRSPLLQGGALSAMLDFFQALVVTGTNNLGYMDLLRMLTGPVYSQSTALTHKQSYYSIAKCVAALTRACPKEGPAVVGQFIQDVKNSRSTDSIRLLALLSLGEVGHHIDLSGQLELKSVILEAFSSPSEEVKSAASYALGSISVGNLPEYLPFVLQEITSQPKRQYLLLHSLKEIISSASVVGLKPYVENIWALLLKHCECAEEGTRNVVAECLGKLTLIDPETLLPRLKGYLISGSSYARSSVVTAVKFTISDHPQPIDPLLKNCIGDFLKTLEDPDLNVRRVALVTFNSAAHNKPSLIRDLLDTVLPHLYNETKVRKELIREVEMGPFKHTVDDGLDIRKAAFECMYTLLDSCLDRLDIFEFLNHVEDGLKDHYDIKMLTFLMLVRLSTLCPSAVLQRLDRLVEPLRATCTTKVKANSVKQEFEKQDELKRSAMRAVAALLTIPEAEKSPLMSEFQSQISSNPELAAIFESIQKDSSSTNLESMDTS
B4: sp¦P11216¦PYGB_HUMAN (protein, UniProt P11216 2-843, looked up)
Glycogen phosphorylase, brain …: AKPLTDSEKRKQISVRGLAGLGDVAEVRKSFNRHLHFTLVKDRNVATPRDYFFALAHTVRDHLVGRWIRTQQHYYERDPKRIYYLSLEFYMGRTLQNTMVNLGLQNACDEAIYQLGLDLEELEEIEEDAGLGNGGLGRLAACFLDSMATLGLAAYGYGIRYEFGIFNQKIVNGWQVEEADDWLRYGNPWEKARPEYMLPVHFYGRVEHTPDGVKWLDTQVVLAMPYDTPVPGYKNNTVNTMRLWSAKAPNDFKLQDFNVGDYIEAVLDRNLAENISRVLYPNDNFFEGKELRLKQEYFVVAATLQDIIRRFKSSKFGCRDPVRTCFETFPDKVAIQLNDTHPALSIPELMRILVDVEKVDWDKAWEITKKTCAYTNHTVLPEALERWPVSMFEKLLPRHLEIIYAINQRHLDHVAALFPGDVDRLRRMSVIEEGDCKRINMAHLCVIGSHAVNGVARIHSEIVKQSVFKDFYELEPEKFQNKTNGITPRRWLLLCNPGLADTIVEKIGEEFLTDLSQLKKLLPLVSDEVFIRDVAKVKQENKLKFSAFLEKEYKVKINPSSMFDVHVKRIHEYKRQLLNCLHVVTLYNRIKRDPAKAFVPRTVMIGGKAAPGYHMAKLIIKLVTSIGDVVNHDPVVGDRLKVIFLENYRVSLAEKVIPAADLSQQISTAGTEASGTGNMKFMLNGALTIGTMDGANVEMAEEAGAENLFIFGLRVEDVEALDRKGYNAREYYDHLPELKQAVDQISSGFFSPKEPDCFKDIVNMLMHHDRFKVFADYEAYMQCQAQVDQLYRNPKEWTKKVIRNIACSGKFSSDRTITEYAREIWGVEPSDLQIPPPNIPRD
B5: sp¦O00743¦PPP6_HUMAN (protein, UniProt O00743 1-305, looked up)
Serine/threonine-protein …: MAPLDLDKYVEIARLCKYLPENDLKRLCDYVCDLLLEESNVQPVSTPVTVCGDIHGQFYDLCELFRTGGQVPDTNYIFMGDFVDRGYYSLETFTYLLALKAKWPDRITLLRGNHESRQITQVYGFYDECQTKYGNANAWRYCTKVFDMLTVAALIDEQILCVHGGLSPDIKTLDQIRTIERNQEIPHKGAFCDLVWSDPEDVDTWAISPRGAGWLFGAKVTNEFVHINNLKLICRAHQLVHEGYKFMFDEKLVTVWSAPNYCYRCGNIASIMVFKDVNTREPKLFRAVPDSERVIPPRTTTPYFL
B6: sp¦P22695¦QCR2_HUMAN (protein, UniProt P22695 15-453, looked up)
Cytochrome b-c1 complex …: SLKVAPKVKATAAPAGAPPQPQDLEFTKLPNGLVIASLENYSPVSRIGLFIKAGSRYEDFSNLGTTHLLRLTSSLTTKGASSFKITRGIEAVGGKLSVTATRENMAYTVECLRGDVDILMEFLLNVTTAPEFRRWEVADLQPQLKIDKAVAFQNPQTHVIENLHAAAYRNALANPLYCPDYRIGKVTSEELHYFVQNHFTSARMALIGLGVSHPVLKQVAEQFLNMRGGLGLSGAKANYRGGEIREQNGDSLVHAAFVAESAVAGSAEANAFSVLQHVLGAGPHVKRGSNTTSHLHQAVAKATQQPFDVSAFNASYSDSGLFGIYTISQATAAGDVIKAAYNQVKTIAQGNLSNTDVQAAKNKLKAGYLMSVESSECFLEEVGSQALVAGSYMPPSTVLQQIDSVANADIINAAKKFVSGQKSMAASGNLGHTPFVDEL
B7: sp¦Q9BV20¦MTNA_HUMAN (protein, UniProt Q9BV20 1-369, looked up)
Methylthioribose-1-phosphate …: MTLEAIRYSRGSLQILDQLLLPKQSRYEAVGSVHQAWEAIRAMKVRGAPAIALVGCLSLAVELQAGAGGPGLAALVAFVRDKLSFLVTARPTAVNMARAARDLADVAAREAEREGATEEAVRERVICCTEDMLEKDLRDNRSIGDLGARHLLERVAPSGGKVTVLTHCNTGALATAGYGTALGVIRSLHSLGRLEHAFCTETRPYNQGARLTAFELVYEQIPATLITDSMVAAAMAHRGVSAVVVGADRVVANGDTANKVGTYQLAIVAKHHGIPFYVAAPSSSCDLRLETGKEIIIEERPGQELTDVNGVRIAAPGIGVWNPAFDVTPHDLITGGIITELGVFAPEELRTALTTTISSRDGTLDGPQM

These molecules were tested on human HL60 cells (assay: SWATH-MS proteomics, differential protein representation, akirin2 KO vs WT HL60 cells). Conditions: akirin2 KO vs WT HL60 cells, SWATH-MS; sheet "Under-represented in KO".
Type: cell-based
Experimental: Total proteins were extracted from WT and akirin2 KO HL60 cells using the AllPrep DNA/RNA/Protein Mini Kit (Qiagen) and protein concentration was determined using the BCA Protein Assay with BSA (Sigma–Aldrich) as standard. Protein extracts (150 µg per sample, n=3 biological replicates) from each WT and KO cells were trypsin digested using the FASP Protein Digestion Kit (Expedeon Ltd., Abcam, Cambridge, U.K.) and sequencing grade trypsin (Promega, Madison, WI, U.S.A.) following manufacturer’s recommendations. The resulting peptides were finally desalted on to OMIX Pipette tips C18 (Agilent Technologies, Santa Clara, CA, U.S.A.), dried down and stored at −20 °C until mass spectrometry analysis. […] Three micrograms of each protein digest from the three biological replicates of WT and akirin2 KO HL60 cells were used for the generation of the reference spectral ion library as part of the SWATH-MS analysis.
Peptides were eluted in a 120-min gradient from 5 to 30% solvent B in solvent A followed by 15-min gradient from 30 to 60% solvent B in solvent A (solvent A: 0.1% formic acid in water, solvent B: 0.1% formic acid in acetonitrile) and directly injected into the mass spectrometer for analysis. For IDA experiments, the mass spectrometer was set to scanning full spectra (350–1400 m/z) using 250 ms accumulation time per spectrum, followed by up to 50 MS/MS scans (100–1500 m/z). Candidate ions with a charge state between +2 and +5 counts per second above a minimum threshold of 100 were isolated for fragmentation. One MS/MS spectrum was collected for 100 ms, before adding those precursor ions to the exclusion list for 15 s (mass spectrometer operated by Analyst TF 1.6, AB Sciex). Dynamic background subtraction was turned off. MS/MS analyses were recorded in high-sensitivity mode with rolling collision energy on and a collision energy spread of 5. For SWATH quantitative analysis, six independent samples (three replicates from WT and akirin2 KO HL60 cells, 5 µg each) were subjected to the cyclic DIA of mass spectra using the SWATH variable windows calculator (V 1.0, AB Sciex) and the SWATH acquisition method editor (AB Sciex), similar to established methods. […] For these experiments, a 50-ms survey scan (350–1400 m/z) was acquired at the beginning of each cycle, and SWATH–MS/MS spectra were collected from 100–1500 m/z for 70 ms at high-sensitivity mode, resulting in a cycle time of 3.6 s. Collision energy for each window was determined according to the calculation for a charge +2 ion-centered upon the window with a collision energy spread of 15. To create a spectral library of all the detectable peptides in the samples, the IDA MS raw files were combined and subjected to database search in unison using ProteinPilot software v. 5.0.1 (AB Sciex) with the Paragon algorithm. […] The detected protein threshold was set at 0.05. An independent false discovery rate (FDR) analysis, using the target–decoy approach provided by Protein Pilot (AB Sciex; https://sciex.com/products/software/proteinpilot-software), was used to assess the quality of identifications. Positive identifications were considered when identified proteins reached 1% of global FDR. […] Global normalization was performed according to the Total Area Sums (TAS) of all detected proteins in the samples. […] Heatmaps were prepared using the Heatmapper (http://www.heatmapper.ca/expression/) with average linkage and Euclidean distance measurement method.

**Q.** How did the “Fold Change” value turn out when B1 was run?
**A.** 0.8194

**Q.** What about the “Log (Fold Change)” value of the same molecule?
**A.** -0.08649

**Q.** How did the “Fold Change” value turn out when B2 was run?
**A.** 0.8202

**Q.** What about the “Log (Fold Change)” value of the same molecule?
**A.** -0.0861

**Q.** With B3 as the molecule, how does the “Fold Change” value read?
**A.** 0.8231

**Q.** What about the “Log (Fold Change)” value of the same molecule?
**A.** -0.08455

**Q.** B4 was tested. Which “Fold Change” value did it give?
**A.** 0.8252

**Q.** And the “Log (Fold Change)” value?
**A.** -0.08342

**Q.** How did the “Fold Change” value turn out when B5 was run?
**A.** 0.8271

**Q.** What about the “Log (Fold Change)” value of the same molecule?
**A.** -0.08246

**Q.** With B6 as the molecule, how does the “Fold Change” value read?
**A.** 0.8272

**Q.** What about the “Log (Fold Change)” value of the same molecule?
**A.** -0.08239

**Q.** Which results are given for B7?
**A.** Fold Change: 0.8301; Log (Fold Change): -0.08085
